# In PubChem BioAssay AID540276 (National Center for Advancing Translational Sciences (NCATS), 2011):
# Values joined by “and” are separate entries in the source; they are usually repeats but may differ in a detail not shown here. Equal values may be shown once. Hit rate of the full screen: of about 300,000 compounds, about 5,400 (1.8%) were called active. Inconclusive means that the source gave no clear call. Such entries were picked first, then a sample of the others. Calls come from the whole dose curve; tested in HEK293 cells. A potency beside an inconclusive call is a rough fit, not a confirmed value.
# Test: qHTS for inhibitors of binding or entry into cells for Marburg Virus
# Conditions: Marburg virus pseudotyped entry inhibition, cell reporter; series mostly up to 37.8 µM
# Potency is the fitted concentration of half-maximal effect.
row,SMILES,Potency
1,O=C(NCC1CCCO1)C(c1cccs1)N(Cc1cccs1)C(=O)c1ccc(-c2ccccc2)[nH]1 (stereo not given),"inconclusive: 20 µM [inhibitor, single point]"
2,N#CC1=C(N)OC2=C(CCC3=C2CCCC3)C1c1ccsc1 (stereo not given),"inconclusive: 5.62 µM [inhibitor, single point]"
3,COc1ccc(CCN(Cc2cc3cc(C)c(C)cc3nc2Cl)C(=O)C2CC2)cc1,"inconclusive: 18.3 µM [inhibitor, single point]"
4,COc1ccc(N2CCN(S(=O)(=O)/C=C/c3ccccc3)CC2)cc1,inactive
5,CCOC(=O)CSc1nnc(CNC(=O)c2ccc([N+](=O)[O-])cc2)n1C,"inconclusive: 1 µM [inhibitor, single point]"
6,COc1ccc(Cn2nnnc2C(c2cccs2)N2CCSCC2)cc1 (stereo not given),"inconclusive: 18.3 µM [inhibitor, single point]"
7,Cc1cc(C)n2nc(C(=O)Nc3nccs3)nc2n1,"inconclusive: 0.092 µM [activator, partial curve, poor fit]"
8,CCOC(=O)c1ccc(COc2ccc(C(C)C)cc2)o1,"inconclusive: 35.5 µM [inhibitor, partial curve, poor fit]"
9,CCN1C(=O)c2ccccc2Sc2ccc(NC(=O)Nc3ccc(C(C)=O)cc3)cc21,inactive
10,O=c1c2c3c(sc2nc(NCCO)n1CCc1ccccc1)CCCCC3,"inconclusive: 29.1 µM [inhibitor, single point]"
11,C=CCn1cc(C(=O)NCc2ccco2)c(=O)c2cc(S(=O)(=O)N3CCCCCC3)ccc21,"inactive and inconclusive: 32.6 µM [inhibitor, single point]"
12,O=C(Cc1cccs1)Nc1ccc(F)cc1F,inactive
13,CCOc1cccc(CNCCO)c1OCc1ccc(Cl)cc1Cl,"inconclusive: 12.6 µM [inhibitor, single point]"
14,CCOC(=O)N1CCN(S(=O)(=O)c2ccc3c4c(cccc24)C(=O)N3)CC1,"inconclusive: 0.562 µM [inhibitor, full curve, poor fit]"
15,CCCCc1nnc(NC(=O)C2=COCCO2)s1,"inconclusive: 6.31 µM [activator, single point]"
16,CCC(C)NCCCOc1ccc(Cl)cc1C(C)(C)C (stereo not given),"inconclusive: 1.41 µM [activator, partial curve, poor fit]"
17,CC1(C)CC(=O)C(C=NCCN2CCOCC2)=C(O)C1,"inconclusive: 2.31 µM [inhibitor, full curve, poor fit]"
18,Cc1c(Cl)cccc1NC(=O)Cc1ccc([N+](=O)[O-])cc1,"inconclusive: 7.08 µM [inhibitor, partial curve, poor fit]"
19,CCCCC(=O)OCc1nc2ccccc2s1,inactive
20,Cc1ccc2nc(CSc3nnc(-c4ccco4)o3)cc(=O)n2c1,inactive
21,Cc1cccc(-n2ncc3c(N4CCCc5ccccc54)ncnc32)c1,"inconclusive: 8.2 µM [inhibitor, partial curve, poor fit]"
22,CC(C)N(C(=O)[C@H]1C[C@H](CC(=O)NC(C)(C)C)C(=O)N2CCc3c([nH]c4cc(CCC(=O)N(C)C)ccc34)[C@]12C)C(C)C,inactive
23,CN(C)C=Nc1ccc(Cl)c(Cl)c1,inactive

row,SMILES,Potency
1,CCOC(=O)c1c(C)n(C)c2ccc(OC)c(NC(=O)CN3CCN(C(=O)c4ccco4)CC3)c12,inactive
2,O=C(COc1ccc(Br)cc1)N1CCOCC1,"inconclusive: 10 µM [activator, partial curve, poor fit]"
3,CCCCC(CC)CNC(=O)c1cc2ccccc2c(=O)o1 (stereo not given),inactive
4,CC(C)(C)c1ccc(C(=O)Oc2ccc3c(c2)OCC3=O)cc1,inactive
5,O=C(N/N=C/c1ccc2c(c1)OCCO2)c1ccncc1,"inconclusive: 3.55 µM [activator, partial curve, poor fit]"
6,CC1CN(c2ccc(NC(=S)NNCCC#N)cc2)CC(C)O1 (stereo not given),inactive
7,COc1cc(-c2nnc3sc(-c4cccs4)nn23)cc(OC)c1OC,"inconclusive: 9.2 µM [inhibitor, partial curve, poor fit]"
8,Nc1ccccc1SCc1cn2ccccc2n1,"inconclusive: 10 µM [inhibitor, partial curve, poor fit] and inconclusive: 4.11 µM [inhibitor, partial curve, poor fit]"
9,CCOCCCNC(=O)C(c1ccc(Cl)cc1)N(Cc1ccc2c(c1)OCO2)C(=O)c1ccccc1O (stereo not given),inactive
10,CC1=C(C#N)C(Nc2cc(C)ccn2)(C(F)(F)F)C(=O)N1 (stereo not given),inactive
11,COc1cc(/C=N/Nc2nc3ccccc3s2)ccc1O,active: 10 µM
12,O=Cc1[nH]c2ccccc2c1N(C(=O)CCl)c1ccc([N+](=O)[O-])cc1,"inconclusive: 3.16 µM [inhibitor, full curve, poor fit]"
13,O=C(CSc1ncn[nH]1)NNC(=O)c1ccccc1,"inconclusive: 7.08 µM [activator, partial curve]"
14,COc1ccc(NS(=O)(=O)c2ccc3ccccc3c2)c2ncccc12,"inconclusive: 2 µM [inhibitor, full curve, poor fit]"
15,Clc1ccccc1CN(Cc1ccco1)Cc1nnnn1C1CCCC1,inactive
16,Clc1ccc2c(c1)C(C1=NCCN1)c1ccccc1CS2 (stereo not given),active: 1.3 µM
17,N#Cc1ccccc1CSc1nc(N2CCCCC2)nc(N2CCCCC2)n1,"inconclusive: 35.5 µM [inhibitor, single point]"
18,CC1CCN(C(=O)Nc2cccc(NC(=O)N3CCC(C)CC3)c2)CC1,inactive
19,CC(=O)Nc1cccc(C(=O)NC2CCCc3c2cnn3-c2cc(C)cc(C)c2)c1 (stereo not given),"inconclusive: 11.2 µM [inhibitor, partial curve, poor fit]"
20,Cc1ccc(S(C)(=O)=NC(=O)c2cc(C)on2)cc1 (stereo not given),inactive
21,CC(C)c1ccc(O)c(CN2CCN(c3ccccc3)CC2)c1,"inconclusive: 11.6 µM [inhibitor, partial curve, poor fit]"
22,CC(=O)N1c2ccc(S(=O)(=O)N3CCCCC3)cc2CC1C(=O)NCc1cccc(Cl)c1 (stereo not given),inactive

# Some values from the results shown:
# In Potency, CC1=C(C#N)C(Nc2cc(C)ccn2)(C(F)(F)F)C(=O)N1 (stereo not given) reads inactive
# In Potency, CCOCCCNC(=O)C(c1ccc(Cl)cc1)N(Cc1ccc2c(c1)OCO2)C(=O)c1ccccc1O (stereo not given) reads inactive
